PubChem BioAssay AID1508597, Cure First, 2020
Shown is a random part of the about 2,100 reagents, in one setting of the screen. 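Calls flag viability under 80% in either arm, not effects specific to rucaparib; the reference for percent is not stated.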 Unmarked entries are inactive. Some reagents were tested in more than one well and are listed for each. Not given: the 100% reference.

Screen: 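Survival screen with siRNA in ovarian cancer cells derived from patients, with or without rucaparib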 (primary screen)
Cell system: human ovarian carcinoma lines grown from tumours: OCI-P5x (papillary serous) and OCI-C5x (clear cell)
Knock-down reagent: siRNA pool against human genes, 1.25 pmol siRNA per well
Timing: 72 h or 96 h, depending on the cell culture
Conditions: rucaparib 20 µM (about IC30) or vehicle, present until read-out
Rucaparib or vehicle: Rucaparib
Cell line: OCI-C5x (clear cell)
Measurement: 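ATP luminescence measured at 72 or 96 h according to the culture, then normalised and expressed as percent viability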
Reading the numbers: viability, normalised: higher = more viable cells remaining
Call rule: 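Active when normalised viability falls below 80 percent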
Calls: active = viability under 80%; inactive = viability 80% or more

| Target gene | technical replicate | viability, normalised (%) |
| --- | --- | --- |
| REV1 (GeneID 51455) | 1 | 44.1 (active) |
| REV1 (GeneID 51455) | 1 | 26.6 (active) |
| REV1 (GeneID 51455) | 2 | 45.4 (active) |
| REV1 (GeneID 51455) | 2 | 34.2 (active) |
| REV1 (GeneID 51455) | 3 | 59.1 (active) |
| REV1 (GeneID 51455) | 3 | 44.4 (active) |
| ESPL1 (GeneID 9700) | 1 | 55 (active) |
| ESPL1 (GeneID 9700) | 2 | 57.9 (active) |
| ESPL1 (GeneID 9700) | 3 | 61.3 (active) |
| SP3 (GeneID 6670) | 1 | 37.1 (active) |
| SP3 (GeneID 6670) | 2 | 30.3 (active) |
| SP3 (GeneID 6670) | 3 | 25.3 (active) |
| CAMK1G (GeneID 57172) | 1 | 54.5 (active) |
| CAMK1G (GeneID 57172) | 1 | 75.7 (active) |
| CAMK1G (GeneID 57172) | 2 | 52.7 (active) |
| CAMK1G (GeneID 57172) | 2 | 83.1 |
| CAMK1G (GeneID 57172) | 3 | 45.8 (active) |
| CAMK1G (GeneID 57172) | 3 | 64 (active) |
| NPR1 (GeneID 4881) | 1 | 52.3 (active) |
| NPR1 (GeneID 4881) | 2 | 66.6 (active) |
| NPR1 (GeneID 4881) | 3 | 68.1 (active) |

Single entries from the list:
Value of SP3 (GeneID 6670), technical replicate 3 under “viability, normalised (%)”: 25.3 (active)
NPR1 (GeneID 4881), technical replicate 3, viability, normalised (%) → 68.1 (active)
For “viability, normalised (%)”, SP3 (GeneID 6670), technical replicate 2 shows 30.3 (active)
Result of ESPL1 (GeneID 9700), technical replicate 1 under “viability, normalised (%)”: 55 (active)
ESPL1 (GeneID 9700), technical replicate 2, viability, normalised (%) = 57.9 (active)
Under “viability, normalised (%)”, NPR1 (GeneID 4881), technical replicate 1 is entered as 52.3 (active)

More reagents follow.
| Target gene | technical replicate | viability, normalised (%) |
| --- | --- | --- |
| PLK2 (GeneID 10769) | 1 | 53.8 (active) |
| PLK2 (GeneID 10769) | 2 | 62.1 (active) |
| PLK2 (GeneID 10769) | 3 | 50.5 (active) |
| KDM3A (GeneID 55818) | 1 | 51.4 (active) |
| KDM3A (GeneID 55818) | 2 | 42.8 (active) |
| KDM3A (GeneID 55818) | 3 | 45.9 (active) |
| MORF4L1 (GeneID 10933) | 1 | 52.1 (active) |
| MORF4L1 (GeneID 10933) | 2 | 49.8 (active) |
| MORF4L1 (GeneID 10933) | 3 | 44.7 (active) |
| MAP3K3 (GeneID 4215) | 1 | 70.7 (active) |
| MAP3K3 (GeneID 4215) | 2 | 70.7 (active) |
| MAP3K3 (GeneID 4215) | 3 | 63 (active) |
| ARID3B (GeneID 10620) | 1 | 41.5 (active) |
| ARID3B (GeneID 10620) | 2 | 50 (active) |
| ARID3B (GeneID 10620) | 3 | 60.2 (active) |
| FGF19 (GeneID 9965) | 1 | 29 (active) |
| FGF19 (GeneID 9965) | 2 | 28.2 (active) |
| FGF19 (GeneID 9965) | 3 | 38.6 (active) |
| SS18L1 (GeneID 26039) | 1 | 63.3 (active) |
| SS18L1 (GeneID 26039) | 2 | 67.3 (active) |
| SS18L1 (GeneID 26039) | 3 | 61.3 (active) |
| ENPP3 (GeneID 5169) | 1 | 55.9 (active) |
| ENPP3 (GeneID 5169) | 2 | 55.8 (active) |
| ENPP3 (GeneID 5169) | 3 | 48.1 (active) |
| MMS19 (GeneID 64210) | 1 | 45.4 (active) |
| MMS19 (GeneID 64210) | 2 | 38.9 (active) |
| MMS19 (GeneID 64210) | 3 | 47.7 (active) |
| ACTL6B (GeneID 51412) | 1 | 63.9 (active) |
| ACTL6B (GeneID 51412) | 2 | 56.5 (active) |
| ACTL6B (GeneID 51412) | 3 | 56 (active) |
| MORF4L2 (GeneID 9643) | 1 | 56.4 (active) |
| MORF4L2 (GeneID 9643) | 2 | 53 (active) |
| MORF4L2 (GeneID 9643) | 3 | 81.2 |
| CIT (GeneID 11113) | 1 | 83.2 |
| CIT (GeneID 11113) | 2 | 79.1 (active) |
| CIT (GeneID 11113) | 3 | 90.3 |
